PubChem BioAssay AID1508597 – Cure First, 2020
Shown is a random part of the about 2,100 reagents, in one setting of the screen. 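Calls flag viability under 80% in either arm, not effects specific to rucaparib; the reference for percent is not stated.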 The record does not give: the 100% reference.

Purpose: 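Survival screen with siRNA in ovarian cancer cells derived from patients, with or without rucaparib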 (primary screen)
Cell system: human ovarian carcinoma lines grown from tumours: OCI-P5x (papillary serous) and OCI-C5x (clear cell)
Reagent: siRNA pool against human genes, 1.25 pmol siRNA per well
Duration: 72 h or 96 h, depending on the cell culture
Conditions: rucaparib 20 µM (about IC30) or vehicle, present until read-out
Rucaparib or vehicle: Rucaparib
Cell line: OCI-C5x (clear cell)
Read-out: 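ATP luminescence measured at 72 or 96 h according to the culture, then normalised and expressed as percent viability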
Direction: viability, normalised: higher = more viable cells remaining
Rule for the call: 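a well counts as a hit if its normalised viability is under 80 percent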
Calls: active = viability under 80%; inactive = viability 80% or more

SFMBT2, technical replicate 1 gave viability, normalised (%) = 45.9; active.
For SFMBT2, technical replicate 2 the deposit lists viability, normalised (%) = 37.1; active.
SFMBT2, technical replicate 3 scored viability, normalised (%) = 39.8; active.
POLR2K, technical replicate 1 scored viability, normalised (%) = 53.9; active.
POLR2K, technical replicate 2 scored viability, normalised (%) = 57.7; active.
POLR2K, technical replicate 3 gave viability, normalised (%) = 55; active.
With NDRG1, technical replicate 1 the deposit lists viability, normalised (%) = 57; active.
With NDRG1, technical replicate 2 the deposit lists viability, normalised (%) = 85.6; inactive.
NDRG1, technical replicate 3 scored viability, normalised (%) = 70; active.

Sorted by “viability, normalised (%)” (lowest first): some entries from above
NDRG1, technical replicate 3 — viability, normalised (%): 70; Outcome: active
NDRG1, technical replicate 2 — viability, normalised (%): 85.6; Outcome: inactive

Additional entries follow.
With DNMT1, technical replicate 1, the entry reads viability, normalised (%) = 62.7; active.
For DNMT1, technical replicate 2, the values are viability, normalised (%) = 64.4; active.
For DNMT1, technical replicate 3, the values are viability, normalised (%) = 60.9; active.
PRKAB2, technical replicate 1 scored viability, normalised (%) = 56.4; active.
With PRKAB2, technical replicate 2 the deposit lists viability, normalised (%) = 58.5; active.
With PRKAB2, technical replicate 3, the entry reads viability, normalised (%) = 77.4; active.
SLC1A2, technical replicate 1 gave viability, normalised (%) = 32.2; active.
SLC1A2, technical replicate 2 showed viability, normalised (%) = 34.9; active.
SLC1A2, technical replicate 3 scored viability, normalised (%) = 26; active.
MAPK3, technical replicate 1 gave viability, normalised (%) = 45.4; active.
With MAPK3, technical replicate 2 the deposit lists viability, normalised (%) = 53.4; active.
MAPK3, technical replicate 3 showed viability, normalised (%) = 52.5; active.
